Source: patent US8859496B2 (Postech Academy-Industry Foundation, priority 2010, dated 2014)
Where a sequence shows no end group, the ends are not given.

Assay: peptide made by a vendor
Conditions: whole synthesis

Sequence: EWVCDEPKDQTVVGPALAAYRLEDTFGPDPTMIRANCLV (Amino acid sequence of linker polypeptide comprising the linker region of SEQ ID NO 5)
- purity (crude or final not stated): about 99.1%
